Our source for the crude mass values is patent US5387671A (Abbott Laboratories, priority 1990, dated 1995).

For some assays here: Strings that start with PEPTIDE1 are HELM notation: dots part the residues, brackets hold end groups and non-standard residues.

Data set [1] is described as follows: general procedure: Boc solid-phase peptide synthesis; Boc-DArg(N-guanidino-Tos)-Merrifield resin. As to conditions: whole synthesis, scale 0.56 g peptide resin.
A short description of data set [2]: Boc solid-phase peptide synthesis; Merrifield resin. As to conditions: whole synthesis, scale 0.6 g peptide resin.

Regarding “N-Acetyl-Phenylalanyl-Lysyl-(N-Methyl)Alanyl-{(2R)-2 -Amino-3-cyclohexylpropanoyl}-{(2S)-2-Amino-3-cyclohexylpropanoyl}-DArginyl-OH”, the crude mass in data set [1] is 130 mg. On to “PEPTIDE1{[NMePhe].K.P.[D-Cha].[PhePsiCH2NH-D-Arg]}$$$$V2.0”, for which the crude mass in data set [2] came to 148 mg.
